From publication PMC10883266, “TTLL12 is required for primary ciliary axoneme formation in polarized epithelial cells” (EMBO Reports, 2023)
These are yes or no findings as the source states them, for the method shown. In cells and extracts the contact can be indirect.

Protein sequences, listed by entry. Tags and fused reporters are not part of them.
UniProt Q14166: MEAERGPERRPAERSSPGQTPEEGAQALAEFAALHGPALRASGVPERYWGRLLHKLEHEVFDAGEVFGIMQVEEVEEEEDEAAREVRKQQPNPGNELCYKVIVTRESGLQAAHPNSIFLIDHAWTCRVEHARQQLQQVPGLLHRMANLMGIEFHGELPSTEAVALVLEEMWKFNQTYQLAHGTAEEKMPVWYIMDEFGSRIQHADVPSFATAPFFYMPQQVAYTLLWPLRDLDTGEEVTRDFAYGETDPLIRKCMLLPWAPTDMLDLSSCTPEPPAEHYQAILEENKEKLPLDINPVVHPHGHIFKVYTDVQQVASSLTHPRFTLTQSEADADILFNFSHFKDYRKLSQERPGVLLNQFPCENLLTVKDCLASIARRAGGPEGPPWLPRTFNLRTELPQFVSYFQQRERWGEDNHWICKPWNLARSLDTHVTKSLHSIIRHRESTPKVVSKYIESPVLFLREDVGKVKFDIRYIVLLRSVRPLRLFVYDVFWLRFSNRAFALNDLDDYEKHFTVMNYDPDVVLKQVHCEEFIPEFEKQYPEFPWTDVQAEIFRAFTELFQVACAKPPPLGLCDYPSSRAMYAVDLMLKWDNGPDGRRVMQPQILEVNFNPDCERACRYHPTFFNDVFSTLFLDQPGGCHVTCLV
UniProt Q5SQI0: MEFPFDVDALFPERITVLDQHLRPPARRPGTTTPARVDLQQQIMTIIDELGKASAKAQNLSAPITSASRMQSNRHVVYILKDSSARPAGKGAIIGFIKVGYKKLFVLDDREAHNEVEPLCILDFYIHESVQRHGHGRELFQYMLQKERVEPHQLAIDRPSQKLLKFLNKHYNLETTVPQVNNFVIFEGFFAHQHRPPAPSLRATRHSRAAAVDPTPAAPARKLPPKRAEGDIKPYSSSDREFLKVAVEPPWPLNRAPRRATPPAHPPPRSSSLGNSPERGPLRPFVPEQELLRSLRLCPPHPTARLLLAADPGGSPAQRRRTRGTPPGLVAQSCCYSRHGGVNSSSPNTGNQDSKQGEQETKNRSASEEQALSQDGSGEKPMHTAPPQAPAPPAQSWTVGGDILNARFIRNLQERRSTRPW

Target: endogenous TTLL12 (RPE1 cells) (human (endogenous in RPE1)) (UniProt Q14166)
Test: co-IP; TTLL12 immunoprecipitated from wild-type or TTLL12 KO RPE1 cells with an anti-TTLL12 antibody; immunoblot for αTAT1

binding: no binding
Substance: endogenous αTAT1 (RPE1 cells) (from UniProt Q5SQI0 1-421) (enzyme)
